Data published in patent publication US11760733B2, “Small molecule regulators of mitochondrial fusion and methods of use thereof” (Washington University, priority 2017, dated 2023).
Some entries share one result that the patent states for a list of compounds.

System: Mfn2 null MEFs
Assay: LIVE/DEAD cytotoxicity assay
Type: cell-based
Conditions: Live-Dead stain, overnight

## CCn1c(CCCNC(=O)NC2CCOCC2)nnc1C1CC1 [Mitolityn-4, 1-(3-(5-cyclopropyl-4-ethyl-4H-1,2,4-triazol-3-yl)propyl)-3-(tetrahydro-2H-pyran-4-yl)urea]
  drug concentrations without cytotoxicity: ≤ 100000 µM
